Assay results reported in patent publication US20140271766A1 (priority 2013, published 2014).

Details: plasma norbuprenorphine; 2 implants; individual patient

norbuprenorphine
Cave Day 21 to removal: 109.9, 104.1, 100.0, 103.8, 76.8, 239.1 pg/ml

Some compounds may have been tested in ways that are not shown here. For part of its entries the source gives two or more results. Only these are listed. The source may hold further records. Values given together differ, and nothing given here explains why; they may come from other doses, times, organisms or constructs than stated.
